## Library screen at single concentrations

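Whole-parasite assay of Trypanosoma brucei over 72 hours; the read-out is not stated. Tested at 30 µM. Direction is inferred from retests: higher values go with stronger inhibition. Values scatter widely below zero; nearly all retest evidence comes from the higher of the two concentrations used. Size under these conditions: about 64,000 compounds, about 940 of them at 50% or above in at least one test.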

Values are the deposited “Percent Effect”, in %.
The record does not define 0% and 100%; most values in the screen are far below 50% and negative numbers occur (in some assays of this library far below -100).
Compounds were drawn at random from those tested, without regard to their results.

compound | percent effect
O=S(=O)(c1ccc(F)cc1)N1CCOC[C@H](Oc2cnccn2)C1 | -6.976
CCn1cc(CN2CCC(c3ccncc3)CC2)cc1C#N | -19.49
CC(NC(=O)NCc1ccccc1)(C(=O)O)c1ccco1 (centres unmarked) | 13.88
CC(C)N(C)Cc1cnc2n1CCN(Cc1ccsc1)C2.O=C(O)C(F)(F)F.O=C(O)C(F)(F)F | -0.145
CN(C)S(=O)(=O)NCc1cccnc1Oc1ccccc1F | 13.17
CCN(CC)C(=O)Nc1cc2c(cc1SC)OCCO2 | 5.826
Cl.O=C1CC(NCc2cnc(N3CCCC3)nc2)CN1c1ccccc1 (centres unmarked) | -13.47
Cc1cc(NCc2cc(C)oc2C(F)(F)F)n2nc(C)cc2n1 | 27.35
Nc1nccc(-c2c[nH]nc2C2CCCCC2)n1 | 44.22
CCOCCS(=O)(=O)Cc1ccn(-c2cccc(F)c2)n1 | -19.7
O=C(O)CCn1ccc(=O)c2cc(F)ccc21 | -3.472
[H][C@]12CCN(Cc3cnc(-c4cccc(OC)c4)s3)C[C@]([H])(CC1)N2 | -42.78
Cc1ccc(-c2ccnc(NCC(O)c3ccc(O)cc3)n2)c(C)n1 (centres unmarked) | 1.874
CSc1ccccc1NC(=O)N1C[C@@H](N(C)C)[C@H](c2ccc(C)cc2)C1 | 0.4431
O=C(CCSc1ccccc1)NCC1CCN(Cc2ccsc2)CC1 | 1.232
CSc1nsc(NC(=O)N2CCc3ccccc3C2)n1 | -2.149
COc1cccc2cc(CNCc3ccc(N4CCCC4)nc3)oc12 | 11.09
[H][C@@]12CCCO[C@]1([H])[C@H](OCc1cccnc1)CN2C(=O)c1ccnnc1 | -0.3826
NCc1cnn(-c2ccccc2C(=O)NCc2ccccc2Cl)c1 | 9.664
CC(Sc1n[nH]c(-c2ccc3c(c2)CCC3)n1)C(N)=O (centres unmarked) | 0.1713
COc1ccc(CN2CC[C@H](O)[C@@H]2Cc2cnn(C)c2)cc1.O=C(O)C(F)(F)F | -364.2
Cc1occc1CNC(=O)NCCN(C)C1CCCC1 | -21.43
Cc1ccc(-c2cc(N)c(=O)n(CC(=O)NC3CCCC3)n2)s1 | -23.6
O=C(Cc1csc(N2CCNC2=O)n1)NC(c1ccccc1)C1CC1 (centres unmarked) | -24.09
CC(CO)NC(=O)Nc1ccc(Cl)cc1OCC(F)(F)F (centres unmarked) | -13.92
Cc1ccc(=O)n(CC2(O)CCN(Cc3cccs3)CC2)n1 | -0.5719
Cc1cc(C2CCC2)nc(N(C)Cc2cnccn2)n1 | -39.85
COc1ccc(-c2cnc(CN3CCCC3CO)o2)cc1 (centres unmarked) | 11.83
O=C(C1CCOCC1)N1CCc2ncnc(-c3ccccc3)c2CC1 | 9.756
CCc1n[nH]c(C2CN(C(=O)COCC(F)(F)F)CCO2)n1 (centres unmarked) | -5.586
CS(=O)(=O)N1CCN(C(=O)c2[nH]c3ccc(Cl)cc3c2Cl)CC1 | 6.584
Cc1cc(C)c2cc(CNCc3cccnc3)c3nn(C)c(=O)n3c2c1 | -20.24
CN1CCN(C(=O)c2cccc(OCc3cscn3)c2)CC1 | -39.18
Cc1cc(C2CCC2)nc(N2CCN(Cc3nccn3C)CC2)n1 | -22.52
CC(C)CNC(=O)c1sccc1-n1cnnn1 | -53.75
CC(C)c1nc(C2CCCN(C(=O)CCn3ccccc3=O)C2)no1 (centres unmarked) | -35.65
O=C(O)C(F)(F)F.[H][C@]12CCN(S(=O)(=O)c3cccs3)C[C@@]1([H])OCCN(CC)C2 | -45.52
Cn1ncc2ccc(C3CCCN(Cc4ccsc4)C3)nc21 (centres unmarked) | 29
Cc1cc(-c2n[nH]c3c2CN(S(=O)(=O)c2ccsc2)CC3)c(C)o1 | -18.24
CC1CCCCN1c1nc2c(c(=O)[nH]1)CCN(Cc1ccccc1F)C2 (centres unmarked) | -7.071
CCNc1ncc(-c2cc(-c3ccn(C)c3)nc(N)c2C#N)cn1 | 0.2373
CC(=O)N1CCC2(CCN(C(=O)c3ccc(F)c(C(F)(F)F)c3)CC2)C1 | -8.176
CCN(C(=O)CCn1cccn1)C1CC1 | 4.906
[H][C@@]12CN(C(=O)N(C)C)C[C@]1([H])C(=O)NC21CCN(C(=O)CC(C)C)CC1 | -9.056
Cc1nn(-c2ccccc2)cc1C(=O)N1CCCC(n2ccnc2C)C1 (centres unmarked) | 21.01
Cc1ccc(NC(=O)[C@@H]2C[C@H](C(=O)O)CN(Cc3sccc3C)C2)cn1 | -23.17
O=C(Cn1nc2c(cc1=O)CCCC2)N[C@@H](Cc1ccccc1)C(=O)O | 0.5066
COC(=O)NCc1cc2n(n1)CCCN(C(C)=O)C2 | 54.27
CCN(CCO)C(=O)Nc1ccc(OCCOC)nc1 | -8.267
[H][C@]12CC[C@]([H])(CN(Cc3cscn3)C1)N(C(=O)c1ccnc(OC)c1)C2 | 1.07
COCCCn1nnc(C2(NC(=O)c3ccccc3)CCCC2)n1 | -12.25
CS(=O)(=O)CCNCc1ccc(OCc2ccccn2)cc1 | -18.99
COCc1cc(CNCc2c(C)n(CC(C)C)c3ccccc23)n[nH]1 | -2.936
N[C@@H]1c2ccccc2C2(CCN(c3cccc(C(F)(F)F)n3)CC2)[C@H]1O | -22.65
COc1ccccc1Cc1cc(O)nc(NC(C)CN(C)C)n1 (centres unmarked) | -2.802
Cc1cccc(-n2cc(C(=O)N3CCCC(n4cccn4)C3)nn2)c1 (centres unmarked) | 4.674
Cc1nc(C)n(C2CCCN(C(=O)c3ccccc3C)C2)n1 (centres unmarked) | -20.89
NCC1(CN2CCOCC2)CCCCC1 | -9.624
CN(Cc1nnc(C2CCC2)o1)C(C(N)=O)c1cccc(F)c1 (centres unmarked) | -24.14
O=C(NCCc1nnc2n1CCC2)N(Cc1ccco1)C1CCCC1 | -44.67
CO[C@H]1C(=O)N(C)C2(CCNCC2)[C@@H]1C(=O)Nc1ccccc1 | -6.595
Cc1nc2c(c(N3CCC(O)(CN4CCCC4)CC3)n1)CCN(C)CC2 | -5.169
Cc1cccc(-c2nc(CN3CCc4cncnc4C3)no2)c1 | -24.1
O=C(CC1CC1)N1CCC2(CCCN(CCOc3ccccc3)C2)C1.O=C(O)C(F)(F)F (centres unmarked) | -47.9
Cc1cnn(CC2CCCCN2Cc2nc(-c3ccoc3)no2)c1 (centres unmarked) | 3.628
CCCn1[nH]cc/c1=N\C(=O)CN1CCc2cnc(CC)nc2C1 | 4.719
Cc1ccc(OCc2ccc(C(=O)O)s2)cc1C | -31.24
Cn1nc(C#N)c2c1CN(C(=O)c1nc[nH]n1)CCC2 | -8.571
CCCC(=O)N1CCC(C(=O)NCCNc2ncccn2)CC1 | -14.84
CSc1ncccc1C(=O)NCc1ccc(N(C)C)cc1 | -39.84
O=C(O)C(F)(F)F.[H][C@@]12CN(Cc3nccs3)CCC[C@]1(C(=O)OCC)CN(S(C)(=O)=O)C2 | -55.74
[H][C@]12CNC[C@@]1(C(=O)NCCCOc1cccnc1)CN(C(C)=O)C2 | -22.31
CCC1CN(c2cnn(C)c(=O)c2Cl)CCO1 (centres unmarked) | -42.96
CCc1ncnc2c1CCN(S(=O)(=O)CC)CC2 | -6.893
Cc1ccc(NC2CCN(C(=O)Cn3nc(C)cc3C)CC2)nn1 | -1.896
Cc1nn(C)cc1C(=O)N1CCCC(c2nccn2CC2CCC2)C1 (centres unmarked) | -8.732

For reference, 4 entries once more:

{"compound": "Cc1cccc(-c2nc(CN3CCc4cncnc4C3)no2)c1", "percent effect": -24.1}
{"compound": "CCn1cc(CN2CCC(c3ccncc3)CC2)cc1C#N", "percent effect": -19.49}
{"compound": "COCCCn1nnc(C2(NC(=O)c3ccccc3)CCCC2)n1", "percent effect": -12.25}
{"compound": "CSc1ccccc1NC(=O)N1C[C@@H](N(C)C)[C@H](c2ccc(C)cc2)C1", "percent effect": 0.4431}

From ChEMBL document CHEMBL3988442, “University of Dundee, Small-Polar-MMV Screening Library” (2021).